Experimental findings from PMC9765674 are described below.

Experiment [1] has as its target T1, FLAG-tagged human RNase L (human) (UniProt Q05823).
T1 sequence: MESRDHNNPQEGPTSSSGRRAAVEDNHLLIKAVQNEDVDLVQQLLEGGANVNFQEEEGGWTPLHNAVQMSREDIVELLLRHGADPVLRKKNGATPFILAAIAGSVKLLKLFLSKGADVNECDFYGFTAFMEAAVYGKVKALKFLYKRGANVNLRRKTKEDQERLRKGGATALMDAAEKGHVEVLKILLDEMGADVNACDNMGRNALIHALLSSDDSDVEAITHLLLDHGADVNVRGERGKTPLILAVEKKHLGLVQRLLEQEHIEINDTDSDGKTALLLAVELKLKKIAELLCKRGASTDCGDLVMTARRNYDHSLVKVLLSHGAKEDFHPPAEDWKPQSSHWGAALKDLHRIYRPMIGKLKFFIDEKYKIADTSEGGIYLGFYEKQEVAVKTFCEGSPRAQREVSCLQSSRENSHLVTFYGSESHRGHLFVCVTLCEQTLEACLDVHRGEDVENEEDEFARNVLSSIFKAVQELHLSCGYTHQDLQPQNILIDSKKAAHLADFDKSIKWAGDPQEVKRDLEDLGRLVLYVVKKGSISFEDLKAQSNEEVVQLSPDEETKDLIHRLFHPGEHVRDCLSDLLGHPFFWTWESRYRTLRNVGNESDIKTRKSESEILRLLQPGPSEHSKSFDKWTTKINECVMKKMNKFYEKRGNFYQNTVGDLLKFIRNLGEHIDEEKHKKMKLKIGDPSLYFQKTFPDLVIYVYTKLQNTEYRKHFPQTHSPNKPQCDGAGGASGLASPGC
The experiment can be described thus: co-IP; HEK 293T treated with 1 uM MLN4924, cotransfected with pFLAG-CMV2-RNase L and pHTN-SA11NSP1; lysates at 24 h pt on anti-FLAG M2 magnetic beads; wash 50 mM Tris pH 7.4, 150 mM NaCl, 0.1% Tween 20; half of the beads treated with RNase A/T1 cocktail 15 min at 37 C; immunoblot with anti-HaloTag. Background: Immunoblotting shows a protein as a band on a membrane.

For experiment [2], the target named is Halo-tagged SA11 NSP1 (simian rotavirus SA11 (group A rotavirus)). The experiment can be described thus: pull-down; reciprocal: the same HEK 293T lysates (MLN4924) on HaloLink resin; wash 50 mM Tris pH 7.4, 150 mM NaCl, 0.5% Triton X-100, 1 mg/mL BSA; half of the resin treated with RNase cocktail; immunoblot with anti-FLAG.

These are yes or no findings as the source states them, for the method shown. In cells and extracts the contact can be indirect. Binding calls can cover weak binding; strength is not graded here. Sequences can lack the tags named with a protein.

As for Halo-tagged SA11 NSP1, the binding result in experiment [1] is “binds”.

B1: FLAG-tagged human RNase L (enzyme, UniProt Q05823 1-741)
chain: MESRDHNNPQEGPTSSSGRRAAVEDNHLLIKAVQNEDVDLVQQLLEGGANVNFQEEEGGWTPLHNAVQMSREDIVELLLRHGADPVLRKKNGATPFILAAIAGSVKLLKLFLSKGADVNECDFYGFTAFMEAAVYGKVKALKFLYKRGANVNLRRKTKEDQERLRKGGATALMDAAEKGHVEVLKILLDEMGADVNACDNMGRNALIHALLSSDDSDVEAITHLLLDHGADVNVRGERGKTPLILAVEKKHLGLVQRLLEQEHIEINDTDSDGKTALLLAVELKLKKIAELLCKRGASTDCGDLVMTARRNYDHSLVKVLLSHGAKEDFHPPAEDWKPQSSHWGAALKDLHRIYRPMIGKLKFFIDEKYKIADTSEGGIYLGFYEKQEVAVKTFCEGSPRAQREVSCLQSSRENSHLVTFYGSESHRGHLFVCVTLCEQTLEACLDVHRGEDVENEEDEFARNVLSSIFKAVQELHLSCGYTHQDLQPQNILIDSKKAAHLADFDKSIKWAGDPQEVKRDLEDLGRLVLYVVKKGSISFEDLKAQSNEEVVQLSPDEETKDLIHRLFHPGEHVRDCLSDLLGHPFFWTWESRYRTLRNVGNESDIKTRKSESEILRLLQPGPSEHSKSFDKWTTKINECVMKKMNKFYEKRGNFYQNTVGDLLKFIRNLGEHIDEEKHKKMKLKIGDPSLYFQKTFPDLVIYVYTKLQNTEYRKHFPQTHSPNKPQCDGAGGASGLASPGC
Regarding B1, the binding result in experiment [2] was “binds”.
